# Source: PubChem BioAssay AID624305 (National Center for Advancing Translational Sciences (NCATS), 2012)
# The shares of active, inactive and inconclusive entries below differ from those in the screen. A potency beside an inconclusive call is a rough fit, not a confirmed value. The source made the active and inactive calls. Calls come from the whole dose curve; as a rule, active = well fitted activation curve with a large enough effect; inconclusive = small, poorly fitted or top-dose-only effect; inactive = no such curve, though single readings can be large or run the other way.
# Test: qHTS assay for re-activators of p53 using a Luc reporter: Hit Validation; note: nearly all actives have a fitted effect of over 75% in size; for activation: 0% is about no effect
# Details: p53-responsive luciferase reporter cells, luminescence, H1299 line expressing heat-sensitive Ala138Val p53; series mostly up to 46.1 µM; activation: at the top concentration
# Method in brief: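 H1299 (p53-null) cells stably carrying p53-A138V and a BP100-luciferase reporter, 1000 cells/well, treated 24 h at 37 deg C. Compounds at several concentrations, 1:5 dilution; nocodazole control; luminescence read after 10 min with detection reagent.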
# Potency is the fitted concentration of half-maximal effect.
Structure (SMILES),Potency,activation
O=C(NCCC1=CCCCC1)c1ccc([N+](=O)[O-])cc1,active: 2590 nM,–
O=C(Cn1cc2c(n1)CCCCC2)NC1CCCCCC1,–,inactive: 69.8%
CN(NC1CC(=O)N(c2ccccc2)C1=O)c1ccccc1 (stereo not given),–,inactive: 13.5%
O=C(OCC(=O)N1CCc2ccccc21)c1ccccc1[N+](=O)[O-],"inconclusive: 206 nM [activator, full curve, poor fit]",–
Cc1ccc(C(=O)Nc2ccn(C)n2)cc1,active: 8200 nM,–
